## Primary screen of a compound library

Chains of the proteins cited; added tags and fusions are not shown.
UniProt E9BF75, entry or part of it: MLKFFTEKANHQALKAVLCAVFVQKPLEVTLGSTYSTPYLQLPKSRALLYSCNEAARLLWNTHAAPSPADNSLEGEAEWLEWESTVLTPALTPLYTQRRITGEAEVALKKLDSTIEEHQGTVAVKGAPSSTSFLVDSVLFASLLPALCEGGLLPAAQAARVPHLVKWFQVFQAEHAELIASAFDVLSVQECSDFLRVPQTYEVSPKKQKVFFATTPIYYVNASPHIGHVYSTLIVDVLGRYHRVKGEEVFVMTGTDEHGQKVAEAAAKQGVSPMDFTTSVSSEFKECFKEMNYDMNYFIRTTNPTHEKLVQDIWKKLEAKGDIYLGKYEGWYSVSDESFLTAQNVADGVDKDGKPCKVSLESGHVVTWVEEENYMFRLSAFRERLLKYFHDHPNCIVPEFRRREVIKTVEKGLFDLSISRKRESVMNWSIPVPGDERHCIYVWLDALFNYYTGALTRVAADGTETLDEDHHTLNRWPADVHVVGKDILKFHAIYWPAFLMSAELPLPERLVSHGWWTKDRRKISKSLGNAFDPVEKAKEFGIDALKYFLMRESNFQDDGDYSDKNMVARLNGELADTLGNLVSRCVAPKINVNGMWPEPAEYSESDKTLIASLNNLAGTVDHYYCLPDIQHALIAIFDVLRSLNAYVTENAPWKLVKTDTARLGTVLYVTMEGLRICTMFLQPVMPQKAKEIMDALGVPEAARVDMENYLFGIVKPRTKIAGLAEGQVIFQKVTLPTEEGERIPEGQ

Data taken from ChEMBL document CHEMBL3988442, “University of Dundee, Small-Polar-MMV Screening Library” (2021).

LdMetRS: 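Methionyl-tRNA synthetase (putative), Leishmania donovani (UniProt E9BF75). Primary screen of methionyl-tRNA synthetase; the read-out is not stated. The test concentration is not given. The values are filed as inhibition. About 68,000 compounds were tested under these conditions; 0.035% (about 24) showed 50% or more at least once.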
Mtb heat-shock: 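Assay on Mycobacterium tuberculosis, filed only as a heat shock assay from Cornell; the read-out is not stated. The concentration is filed as 10 mM, unlikely as a test dose, so the dose is not known. Higher reads as stronger inhibition (inferred: compounds with an IC50 in retests scored well above the rest). Size under these conditions: about 69,000 compounds, about 930 of them at 50% or above in at least one test.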

All values are in %.
The record does not define 0% and 100%; most values in the screen are far below 50% and negative numbers occur (in some assays of this library far below -100).
Compounds were drawn at random from those tested, without regard to their results.
A dash means the value is not listed here; it may have been measured.

SMILES | LdMetRS | Mtb heat-shock
CC(=O)N1CCC2(CC1)CN(C)C(=O)C[C@H]2C(F)(F)F.Cl | - | 3.03%
Cc1nc2[nH]cnc(NCCN3CCCC3)c-2n1 | 15.05% | 57.49%
CCC(CO)N(Cc1ccccn1)C(=O)c1ncccc1C (stereo not drawn) | 2.793% | 23.02%
Cc1nn2c(NCC(=O)NC3CC3)cc(-c3ccccc3)nc2c1C | 7.711% | 24.15%
Cc1ccc(C(C(=O)NCCN2CCC(CO)CC2)N(C)C)cc1 (stereo not drawn) | 7.639% | -2.341%
O=C(NCC1CCOC1)N1CCN(Cc2ccc3c(c2)OCO3)CC1 (stereo not drawn) | 16.57% | 0.7157%
COCCn1cnc2ccc(NC(=O)c3c(C)noc3C)cc2c1=O | 8.639% | -14.46%
Cc1ccc(CNC(=O)Nc2nccs2)cn1 | 26.14% | -3.215%
CN(Cc1ccco1)C1CCC12CCN(C(=O)N1CCCC1)CC2 (stereo not drawn) | 10% | -
CN(C)CCn1c2c(ccc1=O)CC(NC(=O)c1ccsc1)CC2 (stereo not drawn) | 3.279% | -
Cc1cc(=O)[nH]c(SC(C)C(=O)N2CCCN(C3CCCC3)CC2)n1 (stereo not drawn) | 8.333% | -23.79%
FC1(F)CCN(Cc2ccncc2)CC12CCN(Cc1ccccn1)C2.O=C(O)C(F)(F)F.O=C(O)C(F)(F)F.O=C(O)C(F)(F)F (stereo not drawn) | - | -15.56%
CN(Cc1nccn1C)C(CO)c1cccc(Br)c1 (stereo not drawn) | 14.5% | 3.239%
CN(C(=O)CNc1ccc(C#N)cc1)C1CCCCC1 | 17.96% | 13.19%
O=C(C1SCCc2sccc21)N1CCCCC1 (stereo not drawn) | 10.44% | 2.772%
CCc1nnc(CNC2CCc3nc(C(C)C)nn3C2)o1 (stereo not drawn) | 22.39% | -18.52%
Cl.Fc1ccccc1Cn1c(C2CCNCC2)cc2cccnc21 | - | 7.163%
Cn1cc(CN2CCc3c(c(COCC#N)nn3C)C2)cn1 | 8.333% | 3.662%
[H][C@@]12CNC[C@]1([H])CN(C(=O)c1ccc(C)nc1)C2 | - | -15.09%
[H][C@@]12CN(c3ccccc3)C(=O)N1CCN(C1CCC1)C2 | - | 16.4%
CCn1cc(CN2CCCN(C(=O)CCSC)CC2)cn1 | 5.983% | -15.42%
CCCC(=O)Nc1cccc(C(=O)N(C)CCCC2CCCO2)c1 (stereo not drawn) | 1.626% | 10.37%
O=C(c1cccc(Oc2ccccc2)c1)N1CCCC(O)(CO)CC1 (stereo not drawn) | -4.092% | 22.94%
O=C(c1cc[nH]n1)N1CCc2c(nc(N3CCCCC3)[nH]c2=O)C1 | 11.46% | -5.699%
O=C(O)C(F)(F)F.[H][C@@]12CCN(CC3CC3)[C@@]1([H])CCN2C(=O)c1cccn1C | - | -40.09%
O=C(O)C(F)(F)F.[H][C@@]12COC[C@H](C(=O)N3CCOCC3)[C@]1([H])CN(CC1CCCC1)C2 | - | -26.61%
CSCCC(=O)NCc1cc2n(n1)CCN(C(=O)N(C)C)C2 | 8.602% | -32.16%
Cc1cccc(-c2noc(CN3CCCC3Cn3cncn3)n2)c1 (stereo not drawn) | 16.47% | -11.79%
CN(C)CC1CN(CC(=O)N2CCc3ccccc32)CCO1 (stereo not drawn) | 9.429% | -0.09376%
CNC(=O)c1cccc(CN2CCC(N(C)Cc3ncc(C)o3)C2)c1 (stereo not drawn) | 2.198% | -16.96%
N#Cc1nccnc1N1CCC(COCc2ccccc2)C1 (stereo not drawn) | 0.7117% | 11.57%
Cc1nc(C2CCCN2CCCn2c(=O)oc3ccccc32)no1 (stereo not drawn) | -0.2584% | -21.57%
Cc1cc(Nc2ccccn2)nc(C2CCCN(CCO)C2)n1.O=CO (stereo not drawn) | - | -14.49%
COCc1noc(-c2ccc(N3CCCCC3COC)nc2)n1 (stereo not drawn) | 18.13% | 13.23%
Nc1nccnc1CC1CCCN(Cc2cccc3[nH]ccc23)C1 (stereo not drawn) | 7.874% | 2.473%
[H][C@@]12COC[C@]1([H])[C@@H](OCC1CC1)CN2C(=O)c1ccc2c(c1)OCO2 | - | 0.5958%
CC[C@@H]1N(Cc2ccc(C)o2)CCC[C@]12CCC(=O)N2CCOC | 2.03% | -
Cc1cc(C(=O)N2CCC(Nc3cccnc3)CC2)c(C)s1 | 19.02% | -20.58%
Cc1nn2cnnc2c(C)c1CCC(=O)Nc1nnc(C(C)C)s1 | 6.971% | -25.54%
CSCC[C@@H](CO)Nc1ccc(-c2nc(C3CC3)no2)cn1 | 5.923% | -23.5%

Some entries from above, unchanged:

| SMILES | LdMetRS | Mtb heat-shock |
|---|---|---|
| `CN(C)CC1CN(CC(=O)N2CCc3ccccc32)CCO1` (stereo not drawn) | 9.429% | -0.09376% |
| `CC(=O)N1CCC2(CC1)CN(C)C(=O)C[C@H]2C(F)(F)F.Cl` | - | 3.03% |
| `CN(Cc1nccn1C)C(CO)c1cccc(Br)c1` (stereo not drawn) | 14.5% | 3.239% |